In publication doi:10.1101/517573 one finds binding data, which are given here for one molecule.

The chains behind the UniProt entries cited, without tags or fusion partners. Where a name states a change or a piece, a line headed by the entry shows the natural chain unless it says otherwise. Residues count along the entry.
UniProt O43765, 87-313: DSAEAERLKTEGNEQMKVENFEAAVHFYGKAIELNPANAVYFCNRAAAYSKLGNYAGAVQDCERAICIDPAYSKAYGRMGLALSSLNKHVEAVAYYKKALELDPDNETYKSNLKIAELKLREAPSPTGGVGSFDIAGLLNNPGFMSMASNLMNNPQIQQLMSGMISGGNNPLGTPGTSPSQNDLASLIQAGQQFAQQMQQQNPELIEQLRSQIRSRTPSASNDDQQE
UniProt O43765, 213-313: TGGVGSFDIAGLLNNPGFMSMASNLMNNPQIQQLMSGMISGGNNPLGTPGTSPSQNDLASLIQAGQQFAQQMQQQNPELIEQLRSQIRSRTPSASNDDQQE
UniProt O43765, 219-300: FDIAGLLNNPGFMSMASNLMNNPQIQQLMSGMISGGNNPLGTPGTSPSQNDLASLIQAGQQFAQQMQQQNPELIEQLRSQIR
UniProt O43765, 228-300, stated change not applied: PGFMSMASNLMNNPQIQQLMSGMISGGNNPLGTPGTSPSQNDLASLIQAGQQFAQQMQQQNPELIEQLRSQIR

Results are given in words; binding and its absence hold for the method and conditions named. Binding seen in cells or lysates may run through a third protein. Some binding calls cover weakened binding; strength is not graded here. Where a sequence is shown, tags or fusion partners need not be part of it.

Holding throughout (experiment): pull-down
Experiment [1] deals with T1, ySgt2-C (ySgt2 222-346) (Saccharomyces cerevisiae) (UniProt Q12118).
T1 sequence: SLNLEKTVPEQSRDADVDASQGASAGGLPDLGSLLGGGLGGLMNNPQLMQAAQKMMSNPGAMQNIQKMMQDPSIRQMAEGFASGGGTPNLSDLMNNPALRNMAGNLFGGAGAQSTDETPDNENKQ

Experiment [2] has as its target T2, ySgt2-TPR-C (ySgt2 95-346) (Saccharomyces cerevisiae) (UniProt Q12118).
T2 sequence: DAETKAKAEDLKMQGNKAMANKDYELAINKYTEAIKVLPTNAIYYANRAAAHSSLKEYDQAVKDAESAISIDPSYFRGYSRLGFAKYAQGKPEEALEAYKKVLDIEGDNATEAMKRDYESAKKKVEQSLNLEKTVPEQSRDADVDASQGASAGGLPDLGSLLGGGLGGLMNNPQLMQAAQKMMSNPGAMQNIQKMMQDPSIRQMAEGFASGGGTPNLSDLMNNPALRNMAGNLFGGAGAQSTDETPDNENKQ

The target in experiment [3] is hSgt2-C_(cons) (hSgt2 219-300) (Homo sapiens) (UniProt O43765).
The target in experiment [4] is T3, ySgt2-ΔH0 (ySgt2 266-327) (Saccharomyces cerevisiae) (UniProt Q12118).
T3 sequence: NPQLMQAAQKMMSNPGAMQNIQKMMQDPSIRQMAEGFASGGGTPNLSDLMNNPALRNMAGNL

For experiment [5], the target named is T4, ySgt2-C_(cons) (ySgt2 260-327) (Saccharomyces cerevisiae) (UniProt Q12118).
T4 sequence: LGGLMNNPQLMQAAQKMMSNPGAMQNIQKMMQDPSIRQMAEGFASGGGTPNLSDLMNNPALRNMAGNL

Experiment [6] addresses hSgt2-C (hSgt2 213-313) (Homo sapiens) (UniProt O43765).
The target in experiment [7] is hSgt2-TPR-C (hSgt2 87-313) (Homo sapiens) (UniProt O43765).
The target in experiment [8] is hSgt2-ΔH0 (hSgt2 228-300) (Homo sapiens) (UniProt O43765).

B1: MBP-Sbh1 full length (protein, UniProt P52870 1-82)
chain: MSSPTPPGGQRTLQKRKQGSSQKVAASAPKKNTNSNNSILKIYSDEATGLRVDPLVVLFLAVGFIFSVVALHVISKVAGKLF
As for B1, the binding result in experiment [1] is “binds”; in experiment [2], “binds”; in experiment [3] it was “binds”; in experiment [4] it was “binds weakly”; in experiment [5] it was “binds”; in experiment [6], “binds”. In addition, the binding result in experiment [7] and in experiment [8] was “binds” in each case.
